Measured values taken from article PMC3117731, “A systems biology approach to dynamic modeling and inter-subject variability of statin pharmacokinetics in human hepatocytes” (BMC Systems Biology, 2011).

Protein sequences, listed by entry. Tags and fused reporters are not part of them. Residues count along the entry.
UniProt P35503, 29-534: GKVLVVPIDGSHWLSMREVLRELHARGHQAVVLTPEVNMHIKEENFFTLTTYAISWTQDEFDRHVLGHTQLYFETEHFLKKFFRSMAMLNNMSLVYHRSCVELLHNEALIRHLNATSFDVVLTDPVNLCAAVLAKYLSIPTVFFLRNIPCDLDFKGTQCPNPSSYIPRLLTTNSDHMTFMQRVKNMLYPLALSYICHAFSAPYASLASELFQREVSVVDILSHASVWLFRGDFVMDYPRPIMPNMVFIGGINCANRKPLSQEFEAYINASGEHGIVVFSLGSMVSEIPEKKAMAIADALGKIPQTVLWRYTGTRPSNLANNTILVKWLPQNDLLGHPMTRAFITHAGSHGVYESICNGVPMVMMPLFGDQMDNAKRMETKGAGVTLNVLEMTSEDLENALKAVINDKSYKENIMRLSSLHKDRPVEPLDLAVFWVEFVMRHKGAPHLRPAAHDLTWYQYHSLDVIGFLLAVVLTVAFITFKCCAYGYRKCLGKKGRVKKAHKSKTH
UniProt P08684, 2-503 limits assumed: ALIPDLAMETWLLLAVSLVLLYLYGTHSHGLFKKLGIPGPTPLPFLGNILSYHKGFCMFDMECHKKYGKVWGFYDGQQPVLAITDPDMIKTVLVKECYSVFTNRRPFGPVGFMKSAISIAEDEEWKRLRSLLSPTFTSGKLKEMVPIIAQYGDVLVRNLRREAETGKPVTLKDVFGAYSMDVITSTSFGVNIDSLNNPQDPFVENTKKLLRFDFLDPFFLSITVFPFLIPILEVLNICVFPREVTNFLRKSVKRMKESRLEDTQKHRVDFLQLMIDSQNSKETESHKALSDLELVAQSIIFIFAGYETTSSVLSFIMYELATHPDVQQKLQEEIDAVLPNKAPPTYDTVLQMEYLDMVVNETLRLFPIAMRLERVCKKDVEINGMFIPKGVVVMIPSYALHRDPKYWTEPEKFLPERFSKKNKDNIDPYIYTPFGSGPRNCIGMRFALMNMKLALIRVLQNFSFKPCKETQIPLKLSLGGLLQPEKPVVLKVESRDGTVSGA

Tests used:
OATP2B1 = conditions: read-out: KM,2B1 (Michaelis-Menten constant of OATP2B1 import); recombinant; fixed in the optimization; cited from earlier work
UGT1A3 = UGT1A3 (Homo sapiens, UniProt P35503); conditions: human liver microsomes, substrate inhibition kinetics, fixed in the optimization, cited from earlier work
OATP1B1 = conditions: read-out: KM,1B1 (Michaelis-Menten constant of OATP1B1 import); recombinant; fixed in the optimization; cited from earlier work
[1] = test system: primary human hepatocytes; test: Apparent (lumped active transport and passive diffusion) import and export in primary human hepatocytes; format: in vitro ADME
Description: Thus, in the following, mechanisms of active transport and passive diffusion are lumped, resulting in the apparent transport rate for import,(12) [drawing 22]
and in the apparent transport rate for export(13) [drawing 23]
described by the product of apparent rate constant κ im/ex of import or export and extra- or intracellular concentration [drawing 24] , respectively (Figure 3). Consequently, the rate constants κ of import and export are set individually, and were to be estimated in the optimization procedure.

[2] = clinical studies in humans; cited from earlier work
CYP3A4 = CYP3A4 (Homo sapiens, UniProt P08684); conditions: CYP3A4 mediated hydroxylation of AS on human microsomes; cited from earlier work
[3] = Individual 1, nominal value from optimization
[4] = Individual 2, nominal value from optimization
[5] = Individual 3, nominal value from optimization

κex (apparent rate constant of export) [1, 3]: 2.17 µL/min
κim (apparent rate constant of import) [1, 3]: 20.3 µL/min
κex (apparent rate constant of export) [1, 4]: 0.16 µL/min
κim (apparent rate constant of import) [1, 4]: 4.42 µL/min
κex (apparent rate constant of export) [1, 5]: 0.17 µL/min
κim (apparent rate constant of import) [1, 5]: 3.45 µL/min
Structure (SMILES): CC(C)c1c(C(=O)Nc2ccccc2)c(-c2ccccc2)c(-c2ccc(F)cc2)n1CC[C@@H](O)C[C@@H](O)CC(=O)O [AS, atorvastatin acid, reference compound]
Km (OATP2B1): 0.2 µM
Ki (UGT1A3; read-out: KI,1A3 (KI of UGT1A3-lactonization, substrate inhibition)): 75 µM
Km (UGT1A3; read-out: KM,1A3 (KM of UGT1A3-lactonization)): 12 µM
Km (OATP1B1): 18.9 µM
plasma concentrations observed [2]: lower than 200 pmol ml^-1
concentration above which substrate inhibition effects contribute severely (CYP3A4): higher than 100 μM
